For 21 compounds, growth inhibition results are on record in PubChem BioAssay AID504594 (Broad Institute, 2011).

Molecules are shown by their SMILES. Where “and” joins values, the source holds several entries; their conditions need not be identical. Identical values can stand only once. Among all 2,000 compounds or so, fewer than 10 were called active.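 The calls were made as follows: active = growth inhibition of at least 75% in every replicate, which also brings the mean inhibition to 75% or more; inconclusive = mean inhibition 75% or more but some replicate under 75%; inactive = the rest.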 The list shows a part of the results.

The assay can be described thus: growth inhibition of PfHsp90-dependent yeast, primary screen, antimalarial PfHsp90 inhibitor project, S. cerevisiae, BacTiter-Glo luminescence (AID 504594).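 Also: 0% = DMSO neutral control wells and 100% = 20 µM radicicol control wells; higher value means stronger growth inhibition because the sign is flipped.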 To be noted: S. cerevisiae expressing PfHsp90, BacTiter-Glo growth, 48 h; at 9.4 µM; hits give high values.
For the compound `OC1CCCCC1N1CCC(c2ccccc2)CC1` (stereo unspecified), the growth inhibition was inactive: -20.2%. Under `C[C@]12CC[C@@H](O)C[C@@H]1CC[C@@H]1[C@@H]2CC[C@]2(C)[C@@H](O)CC[C@@H]12` stands inactive: 14.2%. Turning to `COc1ccc2c(c1)CC1(CN2C)C(=O)NC(=O)N(CCc2ccccc2)C1=O` (stereo unspecified), the growth inhibition is inactive: -14.4%. As to `CC(=O)OC1C2CCC1C(N1CCCC1)CC2` (stereo unspecified), the growth inhibition is inactive: 11%.

For the compound `CC(Cc1ccccc1)NCC(=O)Nc1cc(N(C)C)nc2ccccc12` (stereo unspecified), the growth inhibition is inactive: -3.96%. Take `C[C@H]1CCCC(=O)CCC/C=C/c2cc(O)cc(O)c2C(=O)O1`: the growth inhibition is inactive: -10.1%. Take `Cc1ccc(-n2c(C)cc(/C=C3/C(=O)NC(=O)N(C)C3=O)c2C)cc1`: the growth inhibition is inactive: 2.59%. Under `Cc1ccsc1C(=O)C1CCCN(Cc2cc3ccccc3o2)C1` (stereo unspecified) stands inactive: 8.42%; under `C#C[C@]1(O)CC[C@H]2[C@@H]3CCC4=CC(=O)CC[C@]4(C)[C@H]3CC[C@@]21C`, inactive: 0.696%.

With `CC(C)[N+](C)(CCC(C(N)=O)(c1ccccc1)c1ccccc1)C(C)C`, the growth inhibition is inactive: -1.79%. Under `C[C@@H]1O[C@@H](O[C@H]2C[C@@H](O)[C@]3(CO)[C@H]4[C@H](O)C[C@]5(C)[C@@H](C6COC(=O)C6)CC[C@]5(O)[C@@H]4CC[C@]3(O)C2)[C@H](O)[C@H](O)[C@H]1O` (stereo partly specified) stands inactive: -0.00875%. As for `O=c1[nH]c2ccccc2n1CCCN1CCC(n2c(=O)[nH]c3cc(Cl)ccc32)CC1`, the growth inhibition is inactive: -8.38%. Under `O=C1CCCC2=C1C(c1cccnc1)Nc1ccccc1N2` (stereo unspecified) stands inactive: 1.04%; under `CC[C@@H]1C(=O)OC[C@@H]1Cc1cncn1C`, inactive: 2.16% and inactive: 0.637%; under `C#CCN(C)C(C)Cc1ccccc1` (stereo unspecified), inactive: -11.2%. Under `CC12CCC3C(CC=C4CC(O)CCC43C)C1C/C(=C\c1cccc(F)c1)C2=O` (stereo unspecified) stands inactive: 9.19%.

For the compound `CC12CC[C@H]3[C@@H](CCC4(O)C[C@H](O)CCC34/C=N/NC(=O)Cc3ccccc3)C1(O)CCC2C1=CC(=O)OC1` (stereo partly specified), the growth inhibition is inactive: -1.88%. Next, `CC12CN3CC(C)(CN(C1)C31CCOCC1)C2=O`: inactive: 17.4%; `C[C@]12CC[C@@H](O)C[C@@H]1CC[C@@H]1[C@@H]2CC[C@]2(C)C(=O)CC[C@@H]12`: inactive: -4%; `CC[C@]12C=CCN3CCC4(c5cc(Br)c(OC)cc5N(C)C4[C@@](O)(C(=O)OC)[C@@H]1OC(C)=O)C32` (stereo partly specified): inactive: -1.11%. Under `CC(C)[C@@]1(NC(=O)[C@@H]2C[C@@H]3c4cccc5[nH]cc(c45)C[C@H]3N(C)C2)O[C@@]2(O)[C@@H]3CCCN3C(=O)[C@H](Cc3ccccc3)N2C1=O` stands inactive: 2.9%.
